The structures appear in SMILES notation. Some of the results follow. Shown are side measurements of this screen, not its main read-out; they come without a call. Compounds called inactive in the main read-out are mostly missing here. Words in brackets tell the shape of the fitted curve; partial curves, single points and poor fits give uncertain potencies.

The results in this text go back to PubChem BioAssay AID2685 (National Center for Advancing Translational Sciences (NCATS), 2010).

This test is described as follows: qHTS Assay for Lipid Storage Modulators in Drosophila S3 Cells.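 For cell number change: cells counted by Cell Tracker Red CMTPX staining in the red channel.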 The settings on record: BODIPY lipid droplet fluorescence, 18-24 h; for cell number change: measured here: cell count max response, cells fed with added oleic acid. Put shortly:
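Laser-scanning cytometry quantifies lipid droplet accumulation (500–530 nm total intensity; droplet/cell object ratio) in oleic acid-fed (400 uM added) Drosophila S3 cells treated with a concentration series. 20 uM Triacsin C defined 100% inhibition.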

Where [1] appears, read: measured here: lipid fluorescence (Fed channel) AC50, cells fed with added oleic acid.
Where [2] appears, read: measured here: cell number channel AC50, cells fed with added oleic acid.

The AC50 is the concentration giving half of the maximal activity seen. Lower therefore signals greater potency. Take `Cc1cc(C(=O)Oc2ccccc2C(=O)O)c(C)o1`: the cell number change is -0.325%. The AC50 under setting [1] is 1.3 µM [falling, full curve].
On to `COc1ccc(CCN2C(=O)CC(N3CCN(S(=O)(=O)c4ccccc4)CC3)C2=O)cc1OC` (stereo not given), for which the cell number change turned out to be 15.2%. Also, the concentration at half-maximal activity (AC50) under setting [2] was 0.461 µM [rising, partial curve]. Under setting [1], the concentration at half-maximal activity (AC50) is 0.00411 µM [rising, full curve, poor fit].
On to `CC12CCC(=O)N1C(C(=O)Nc1cc(S(=O)(=O)N3CCCCCC3)ccc1OCC(F)(F)F)CS2` (stereo not given), for which the cell number change was -37.8%. Moreover, the AC50 under setting [2] is 8.2 µM [falling, partial curve, poor fit]. For the same compound, the AC50 under setting [1] was 2.91 µM [falling, single point].
For the compound `CCc1ccccc1N(C(=O)c1snc(C(N)=O)c1N)C(C(=O)NCC1CCCO1)c1ccc(OC)c(OC)c1` (stereo not given), the cell number change is -2.82%.
For the compound `CCN1C(=O)/C(=C\N(C)C)S/C1=N\S(=O)(=O)c1ccc(C)cc1`, the cell number change is 1.97%. Also, under setting [2], the AC50 was 0.291 µM [rising, partial curve, poor fit]. Moreover, the half-maximal activity concentration (AC50) under setting [1] is 2.06 µM [rising, single point].
For `Cn1c(SCc2cc(=O)n3cc(Br)ccc3n2)nnc1C1COc2ccccc2O1` (stereo not given), the cell number change came out at 27.1%. In addition, the AC50 under setting [2] was 2.59 µM [rising, single point]. Further, the AC50 under setting [1] was 29.1 µM [rising, single point].
`NC(=S)N/N=C/c1ncc(C(F)(F)F)cc1Cl`: the cell number change was -32.7%. Besides, under setting [2], the AC50 was 16.4 µM [falling, single point]. For the same compound, the concentration at half-maximal activity (AC50) under setting [1] was 20.6 µM [falling, single point].
With `Cc1ccc(CC(=O)NCCN2CCOCC2)cc1`, the cell number change stood at 3.02%.
Turning to `C=CCNc1nc(N2CCCC2)nc2ccccc12`, the AC50 was 0.184 µM [rising, full curve] under setting [2] and 0.82 µM [rising, full curve] under setting [1].
As to `CCOc1ccccc1N(C(=O)c1snc(C(N)=O)c1N)C(C(=O)NC1CCCC1)c1ccco1` (stereo not given), the cell number change turned out to be 4.04%. For the same compound, the half-maximal activity concentration (AC50) under setting [1] was 3.26 µM [rising, single point].
`O=C(CN1CCCc2ccccc21)NCCc1ccc(Cl)cc1`: the cell number change stood at 30.9%. For the same compound, the half-maximal activity concentration (AC50) under setting [2] is 16.4 µM [rising, single point]. Besides, the half-maximal activity concentration (AC50) under setting [1] is 0.326 µM [rising, full curve].
On to `COc1ccc(CNC(=O)CN(C(=O)c2csnn2)c2cnc3ccccc3c2)cc1`, for which the cell number change is 11.5%. Further, the AC50 under setting [2] is 1.3 µM [rising, partial curve].
For `OC(CCN1CCCCC1)(c1ccccc1)C1CCCCC1` (stereo not given), the cell number change was -5.84%. For the same compound, the AC50 under setting [1] is 0.103 µM [falling, full curve, poor fit].
`COc1ccccc1NC(=O)COC(=O)CCS(=O)(=O)c1ccc(C)cc1`: the half-maximal activity concentration (AC50) under setting [1] was 29.1 µM [falling, single point].
As to `COCCC(=O)N1CCC(Oc2ccc(C(=O)N3C[C@@H](C)O[C@@H](C)C3)cc2)CC1`, the cell number change is -3.59%.
With `C=CCNC(=S)N1CCN(CCN=Cc2c(C)[nH]n(-c3ccc([N+](=O)[O-])cc3)c2=O)CC1`, the cell number change stood at 32.2%. In addition, the AC50 under setting [2] is 1.03 µM [rising, full curve, poor fit].
On to `O=C(COC(=O)CNC(=O)c1ccc(Cl)cc1Cl)NC(=O)NCc1ccccc1`, for which the cell number change was -6.43%.
For `CCCn1c(=O)c(C(=O)Nc2ncccc2C)c(O)c2ccccc21`, the cell number change was -7.63%. Further, the AC50 under setting [2] is 4.61 µM [rising, partial curve, poor fit].
With `Cc1cccc(NC(=O)Nc2nnc(N3CCCCC3C)s2)c1C` (stereo not given), the cell number change is -9.59%.
Regarding `COc1ccccc1NC(=O)Nc1ccc(Cc2ccncc2)cc1`, the cell number change is -46.2%.
Turning to `COc1ccccc1N1CCN(CCCCOc2ccc(F)cc2)CC1`, the cell number change amounted to 22.2%. In addition, under setting [1], the AC50 is 6.51 µM [falling, single point].
Turning to `Cc1ccc(Nc2ccc(C(F)(F)F)cc2[N+](=O)[O-])cc1`, the cell number change was -40.9%. In addition, the concentration at half-maximal activity (AC50) under setting [2] was 9.2 µM [falling, partial curve]. Under setting [1], the AC50 is 13 µM [falling, partial curve].
Regarding `OC(CNCCc1ccc(Cl)cc1)COc1ccc2ccccc2c1` (stereo not given), the cell number change is -72.6%. Further, the AC50 under setting [2] was 1.03 µM [falling, partial curve].
With `Cc1cccc(NC(=O)NCC(c2ccco2)N2CCCCC2)c1` (stereo not given), the cell number change was -37.9%. For the same compound, the AC50 under setting [1] was 4.61 µM [falling, partial curve].
Take `O=C(Nc1ccc(S(=O)(=O)Nc2nccs2)cc1)c1nn(-c2ccc(F)cc2)ccc1=O`: the cell number change is -0.382%. The AC50 under setting [1] is 0.58 µM [rising, single point].
`Cc1cc(CN(C)C(=O)c2cc(COc3ccc4ncccc4c3)on2)on1`: the cell number change is -46.7%. The concentration at half-maximal activity (AC50) under setting [2] was 8.2 µM [falling, partial curve].
On to `COC(=O)NC(=C(Cl)Cl)S(=O)(=O)c1ccccc1`, for which the cell number change is -41.4%. Further, the concentration at half-maximal activity (AC50) under setting [2] was 18.4 µM [falling, partial curve, poor fit]. Further, the AC50 under setting [1] is 1.46 µM [falling, full curve].
As to `O=C(Nc1cc(Cl)ccc1-n1cncn1)c1cncc(Br)c1`, the cell number change was determined as 40.4%. The AC50 under setting [2] is 20.6 µM [rising, single point].
As to `Cc1onc(-c2c(F)cccc2Cl)c1C(=O)Nc1cccc(Cn2cccn2)c1`, the cell number change was found to be 3.85%. Moreover, under setting [1], the AC50 is 9.2 µM [rising, partial curve, poor fit].
Turning to `Fc1ccc2nc(Nc3nc4cc5c(cc4s3)OCO5)sc2c1`, the cell number change was -50.1%. Under setting [2], the half-maximal activity concentration (AC50) is 32.6 µM [falling, single point]. Also, under setting [1], the AC50 is 29.1 µM [falling, single point].
As to `COc1ccccc1CC(=O)Nc1cc(C)ccn1`, the cell number change was -8.47%.
`Cc1ccc(-c2c(C)n([O-])c3c([n+]2=O)CCC3)o1`: the cell number change came out at 9.53%. Besides, the half-maximal activity concentration (AC50) under setting [1] is 0.731 µM [falling, full curve, poor fit].
Turning to `CN(C)c1ccc(/C=N/NC(=O)C(=O)/C=C2\NC3(CCCC3)Cc3ccccc32)cc1`, the cell number change was 15.7%. For the same compound, under setting [2], the AC50 is 6.51 µM [rising, single point]. In addition, the AC50 under setting [1] was 29.1 µM [falling, single point].
On to `COc1ccc(Cc2nnc(SCC(=O)Nc3ccc(C)cc3)n(N)c2=O)cc1`, for which the cell number change amounted to 80.1%. For the same compound, the half-maximal activity concentration (AC50) under setting [2] was 18.4 µM [rising, partial curve].
For the compound `Cc1ccc2nc(NC(=O)c3ccc(Cl)s3)sc2c1`, the cell number change was -31.8%. The AC50 under setting [2] is 1.64 µM [falling, full curve]. In addition, the AC50 under setting [1] is 29.1 µM [falling, single point].
Consider `O=C(CCc1ccc(S(=O)(=O)N2CCOCC2)cc1)Nc1ccc2c(c1)OCCO2`, for which the cell number change is -22.9%. In addition, the concentration at half-maximal activity (AC50) under setting [2] was 0.651 µM [falling, single point].
In the case of `Cc1ccc(Cl)cc1N=C(N)N=C(N)N`, the cell number change was determined as 94.5%.
Regarding `Cc1ccccc1N/N=C1\CCCNC1=O`, the cell number change is -20%.
Regarding `CC(OC(=O)c1ccc2noc(-c3ccccc3)c2c1)C(N)=O` (stereo not given), the cell number change is -2.63%. For the same compound, under setting [2], the AC50 is 0.58 µM [falling, single point].
As for `Cc1ccc2oc(C(=O)Nc3nnc(CC(C)C)s3)c(C)c2c1`, the cell number change was determined as 12.9%. For the same compound, the half-maximal activity concentration (AC50) under setting [2] was 3.66 µM [rising, partial curve, poor fit].
Take `O=c1oc2ccccc2c(Nc2ccccc2)c1CN1CCCCC1`: the cell number change was 26.2%.
With `COc1ccc2c(c1)C(c1ccccc1)NC(=O)C2` (stereo not given), the cell number change was 12.7%. The AC50 under setting [2] is 2.06 µM [falling, single point]. Further, under setting [1], the concentration at half-maximal activity (AC50) is 2.06 µM [falling, partial curve].
As for `COc1cccc(C(=O)Nc2ccc(S(=O)(=O)N3CCCCC3)cc2)c1OC`, the cell number change is -0.507%. Also, under setting [1], the half-maximal activity concentration (AC50) was 16.4 µM [falling, single point].
With `COc1cccc(C2CC(c3cccc(Br)c3)n3ncnc3N2)c1` (stereo not given), the cell number change is -0.142%.
On the same count and under the same terms, the same measure for `CC(C)(C)NC(=O)CN(Cc1cccs1)C(=O)CNS(=O)(=O)c1ccccc1`: -4.79%.
Turning to `Cn1nnc(NC(=S)NC(=O)c2cc3ccccc3o2)n1`, the cell number change came to 12.3%. Moreover, under setting [1], the concentration at half-maximal activity (AC50) is 20.6 µM [rising, single point].
As for `O=C(Nc1ccccc1)N(C1=NCCCCS1)c1ccccc1`, the cell number change was -6.56%. In addition, the half-maximal activity concentration (AC50) under setting [1] was 3.26 µM [falling, single point].
With `O=C(C(Sc1ccccc1)c1ccccc1)N1CCN(c2ccccc2F)CC1` (stereo not given), the cell number change was -22.8%. Besides, the AC50 under setting [1] is 29.1 µM [falling, single point].
Turning to `COC(=O)C1C(=O)C2=C(CC1C)NC(=O)CC2c1cccc(C)c1` (stereo not given), the cell number change was found to be 19.9%. In addition, under setting [1], the AC50 is 3.26 µM [rising, full curve, poor fit].
As for `CN(Cc1nc(-c2ccccn2)no1)S(=O)(=O)c1ccc(Cl)cc1`, the cell number change turned out to be 225%. For the same compound, under setting [2], the AC50 was 16.4 µM [rising, partial curve]. The AC50 under setting [1] is 10.3 µM [rising, partial curve].
For `O=C(NC(Cc1c[nH]c2ccccc12)C(=O)O)/C(=C/c1ccco1)NC(=O)c1ccccc1` (stereo not given), the cell number change was -10.8%. Further, under setting [2], the half-maximal activity concentration (AC50) is 1.16 µM [falling, full curve]. Further, the concentration at half-maximal activity (AC50) under setting [1] was 0.259 µM [falling, partial curve, poor fit].
Consider `CN(C(=O)c1ccc2c(c1)OCCO2)c1c(N)n(Cc2ccccc2)c(=O)[nH]c1=O`, for which the cell number change was 1.45%. The half-maximal activity concentration (AC50) under setting [2] is 0.366 µM [falling, full curve, poor fit]. Also, the AC50 under setting [1] is 0.461 µM [falling, full curve, poor fit].
On to `CC1CCCN(C(=O)c2cccc(S(=O)(=O)N3CCCC3)c2)C1` (stereo not given), for which the cell number change was -3.2%. Besides, under setting [1], the AC50 was 0.103 µM [rising, full curve, poor fit].
For `O=C(c1ccc([N+](=O)[O-])o1)N1CCN(c2nc3c(F)cc(F)cc3s2)CC1`, the cell number change was -30.7%. For the same compound, under setting [2], the half-maximal activity concentration (AC50) is 10.3 µM [falling, partial curve]. In addition, under setting [1], the AC50 is 0.651 µM [falling, full curve].
With `Cc1ccc2[nH]c(=O)c(C(c3nnnn3CC3CCCO3)N3CCCc4ccccc43)cc2c1` (stereo not given), the cell number change turned out to be 27.9%. Under setting [2], the AC50 was 2.91 µM [rising, full curve, poor fit].
Take `CCOC(=O)C1CCN(C(=S)Nc2ccc(C)cc2)CC1`: the cell number change was -7.4%. Also, the AC50 under setting [1] is 0.461 µM [rising, single point].
As for `COc1cccc(C(=O)Nc2cc3c(cc2Br)OCCCO3)c1`, the cell number change came out at 37.9%. Further, the half-maximal activity concentration (AC50) under setting [2] is 29.1 µM [rising, single point]. Also, under setting [1], the AC50 is 6.51 µM [rising, full curve, poor fit].
As to `N#CC1CCN(C(=O)c2ccc3c(Cl)c4c(nc3c2)CCCC4)CC1`, the cell number change was -1.79%. For the same compound, under setting [1], the AC50 is 29.1 µM [falling, single point].
